The data set is described as follows: Prodrug assay: LC-MS analysis of the formulation samples.

As for `O=S(=O)(Cc1cc(Cl)cc(Cl)c1)Nc1ncc(Cl)cc1O` [Example 9, N-(5-chloro-3-hydroxypyridin-2-yl)-1-(3,5-dichlorophenyl)methanesulfonamide], the “Parent content found in formulation solution” value (from here on “Parent content found”) (Formulation solution 0.1 mg/ml) is on record as less than 0.1% and the “Parent content found” value (Formulation solution 1 mg/ml) is on record as less than 0.1%.

In the case of `O=S(=O)(Nc1cnc(Cl)cc1O)c1cc(Cl)sc1Cl` [Example 73, 2,5-dichloro-N-(6-chloro-4-hydroxypyridin-3-yl)thiophene-3-sulfonamide], the “Parent content found” value reads like this: (Formulation solution 0.1 mg/ml) less than 0.7%; (Formulation solution 1 mg/ml) less than 0.7%.

In the case of `O=S(=O)(Cc1ccc(Cl)c(Cl)c1)Nc1ncc(Br)nc1O` [Example 75, N-(5-bromo-3-hydroxypyrazin-2-yl)-1-(3,4-dichlorophenyl)methanesulfonamide], the “Parent content found” value is on record as less than 0.8% (Formulation solution 0.1 mg/ml) and less than 0.8% (Formulation solution 1 mg/ml).

The record behind these values is US10125125B2, “N-(heteroaryl)-sulfonamide derivatives useful as S100-inhibitors” (Active Biotech AB, priority 2013, dated 2018).
